According to article PMC9622860, “Structural and molecular determinants of Candida glabrata metacaspase maturation and activation by calcium” (Communications Biology, 2022):
No constants are given. Whether binding was seen depends on the method and setting.

Biological target: Candida glabrata metacaspase CgMCA-I (residues 1-392), wild type (Candida glabrata) (UniProt Q6FPX9)
Test: SEC-SAXS; SAXS in SEC-coupled mode, Superdex S200 Increase 5/150, 10 mM HEPES pH 7.6, 300 mM NaCl, 1% glycerol, 10 mM CaCl2; sample at 9.6 mg mL^-1; both purified

binding: no binding (tested: 9.6 mg mL^-1)
B1: Candida glabrata metacaspase CgMCA-I (residues 1-392), wild type (enzyme, UniProt Q6FPX9 1-392)
chain: MYPGSGNYSYNNRPSMPPPGFNGDGQGYRQEYGNQYGGGYQQQQYQDQYQGENRGQYQGQYQDQPEYGRPPSGMVRPPSSIQQGNGQQFQYSQMTGRRKALLIGINYIGSKNALRGCINDAHNIFNYLTTYCGYRPEDIVMLTDDQREMVKIPLKENIIRAMQWLVKDAQPNDALFFHYSGHGGQTKDLDGDEEDGMDDVIYPVDFESVGPLIDDTMHDIMVKSLPQGARLTALFDSCHSGTVLDLPYTYSTKGVIKEPNMWKDVGSDGIQAAMAYATGNRSALFSSIGNMVSSVTKKQNVDRERVRQIKFSPADVIMLSGSKDNQTSADTFADGQNIGAMSHAFISVMTRQPQQSYLSLLQNLRNELAGKYSQKPQLSASHPIDVNLQFIM
